Measurements published in the supplement of paper PMC10849652.
This is one part of the list.

By UniProt entry, the sequences of proteins in these tests, tags left out. Where a name states a change or a piece, a line headed by the entry shows the natural chain unless it says otherwise.
UniProt Q9UDX5: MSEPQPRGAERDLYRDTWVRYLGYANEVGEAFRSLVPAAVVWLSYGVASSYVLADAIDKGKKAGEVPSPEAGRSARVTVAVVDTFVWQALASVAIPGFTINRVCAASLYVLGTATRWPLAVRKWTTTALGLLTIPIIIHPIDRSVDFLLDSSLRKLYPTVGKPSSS
UniProt Q9HD23: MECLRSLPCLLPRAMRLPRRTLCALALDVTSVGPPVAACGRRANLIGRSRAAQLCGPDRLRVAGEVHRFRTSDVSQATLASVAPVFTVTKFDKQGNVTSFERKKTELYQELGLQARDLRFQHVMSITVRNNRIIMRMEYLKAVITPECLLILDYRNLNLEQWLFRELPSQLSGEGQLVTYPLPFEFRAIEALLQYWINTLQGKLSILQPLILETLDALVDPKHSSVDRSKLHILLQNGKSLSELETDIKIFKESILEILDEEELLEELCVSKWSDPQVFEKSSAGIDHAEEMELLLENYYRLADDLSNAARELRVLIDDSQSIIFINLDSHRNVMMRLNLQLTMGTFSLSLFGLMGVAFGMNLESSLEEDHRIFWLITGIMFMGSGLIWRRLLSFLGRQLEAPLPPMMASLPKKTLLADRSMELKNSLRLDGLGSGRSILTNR
UniProt Q9H903: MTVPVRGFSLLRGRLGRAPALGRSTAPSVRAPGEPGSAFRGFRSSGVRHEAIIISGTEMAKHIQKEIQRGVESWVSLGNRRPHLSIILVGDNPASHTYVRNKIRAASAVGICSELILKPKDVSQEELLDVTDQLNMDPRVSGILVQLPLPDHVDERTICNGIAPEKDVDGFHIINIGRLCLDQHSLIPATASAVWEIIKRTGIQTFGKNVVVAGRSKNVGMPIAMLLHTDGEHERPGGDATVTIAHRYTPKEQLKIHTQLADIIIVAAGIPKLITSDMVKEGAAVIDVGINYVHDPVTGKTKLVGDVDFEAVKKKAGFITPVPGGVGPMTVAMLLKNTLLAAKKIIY
UniProt O75592: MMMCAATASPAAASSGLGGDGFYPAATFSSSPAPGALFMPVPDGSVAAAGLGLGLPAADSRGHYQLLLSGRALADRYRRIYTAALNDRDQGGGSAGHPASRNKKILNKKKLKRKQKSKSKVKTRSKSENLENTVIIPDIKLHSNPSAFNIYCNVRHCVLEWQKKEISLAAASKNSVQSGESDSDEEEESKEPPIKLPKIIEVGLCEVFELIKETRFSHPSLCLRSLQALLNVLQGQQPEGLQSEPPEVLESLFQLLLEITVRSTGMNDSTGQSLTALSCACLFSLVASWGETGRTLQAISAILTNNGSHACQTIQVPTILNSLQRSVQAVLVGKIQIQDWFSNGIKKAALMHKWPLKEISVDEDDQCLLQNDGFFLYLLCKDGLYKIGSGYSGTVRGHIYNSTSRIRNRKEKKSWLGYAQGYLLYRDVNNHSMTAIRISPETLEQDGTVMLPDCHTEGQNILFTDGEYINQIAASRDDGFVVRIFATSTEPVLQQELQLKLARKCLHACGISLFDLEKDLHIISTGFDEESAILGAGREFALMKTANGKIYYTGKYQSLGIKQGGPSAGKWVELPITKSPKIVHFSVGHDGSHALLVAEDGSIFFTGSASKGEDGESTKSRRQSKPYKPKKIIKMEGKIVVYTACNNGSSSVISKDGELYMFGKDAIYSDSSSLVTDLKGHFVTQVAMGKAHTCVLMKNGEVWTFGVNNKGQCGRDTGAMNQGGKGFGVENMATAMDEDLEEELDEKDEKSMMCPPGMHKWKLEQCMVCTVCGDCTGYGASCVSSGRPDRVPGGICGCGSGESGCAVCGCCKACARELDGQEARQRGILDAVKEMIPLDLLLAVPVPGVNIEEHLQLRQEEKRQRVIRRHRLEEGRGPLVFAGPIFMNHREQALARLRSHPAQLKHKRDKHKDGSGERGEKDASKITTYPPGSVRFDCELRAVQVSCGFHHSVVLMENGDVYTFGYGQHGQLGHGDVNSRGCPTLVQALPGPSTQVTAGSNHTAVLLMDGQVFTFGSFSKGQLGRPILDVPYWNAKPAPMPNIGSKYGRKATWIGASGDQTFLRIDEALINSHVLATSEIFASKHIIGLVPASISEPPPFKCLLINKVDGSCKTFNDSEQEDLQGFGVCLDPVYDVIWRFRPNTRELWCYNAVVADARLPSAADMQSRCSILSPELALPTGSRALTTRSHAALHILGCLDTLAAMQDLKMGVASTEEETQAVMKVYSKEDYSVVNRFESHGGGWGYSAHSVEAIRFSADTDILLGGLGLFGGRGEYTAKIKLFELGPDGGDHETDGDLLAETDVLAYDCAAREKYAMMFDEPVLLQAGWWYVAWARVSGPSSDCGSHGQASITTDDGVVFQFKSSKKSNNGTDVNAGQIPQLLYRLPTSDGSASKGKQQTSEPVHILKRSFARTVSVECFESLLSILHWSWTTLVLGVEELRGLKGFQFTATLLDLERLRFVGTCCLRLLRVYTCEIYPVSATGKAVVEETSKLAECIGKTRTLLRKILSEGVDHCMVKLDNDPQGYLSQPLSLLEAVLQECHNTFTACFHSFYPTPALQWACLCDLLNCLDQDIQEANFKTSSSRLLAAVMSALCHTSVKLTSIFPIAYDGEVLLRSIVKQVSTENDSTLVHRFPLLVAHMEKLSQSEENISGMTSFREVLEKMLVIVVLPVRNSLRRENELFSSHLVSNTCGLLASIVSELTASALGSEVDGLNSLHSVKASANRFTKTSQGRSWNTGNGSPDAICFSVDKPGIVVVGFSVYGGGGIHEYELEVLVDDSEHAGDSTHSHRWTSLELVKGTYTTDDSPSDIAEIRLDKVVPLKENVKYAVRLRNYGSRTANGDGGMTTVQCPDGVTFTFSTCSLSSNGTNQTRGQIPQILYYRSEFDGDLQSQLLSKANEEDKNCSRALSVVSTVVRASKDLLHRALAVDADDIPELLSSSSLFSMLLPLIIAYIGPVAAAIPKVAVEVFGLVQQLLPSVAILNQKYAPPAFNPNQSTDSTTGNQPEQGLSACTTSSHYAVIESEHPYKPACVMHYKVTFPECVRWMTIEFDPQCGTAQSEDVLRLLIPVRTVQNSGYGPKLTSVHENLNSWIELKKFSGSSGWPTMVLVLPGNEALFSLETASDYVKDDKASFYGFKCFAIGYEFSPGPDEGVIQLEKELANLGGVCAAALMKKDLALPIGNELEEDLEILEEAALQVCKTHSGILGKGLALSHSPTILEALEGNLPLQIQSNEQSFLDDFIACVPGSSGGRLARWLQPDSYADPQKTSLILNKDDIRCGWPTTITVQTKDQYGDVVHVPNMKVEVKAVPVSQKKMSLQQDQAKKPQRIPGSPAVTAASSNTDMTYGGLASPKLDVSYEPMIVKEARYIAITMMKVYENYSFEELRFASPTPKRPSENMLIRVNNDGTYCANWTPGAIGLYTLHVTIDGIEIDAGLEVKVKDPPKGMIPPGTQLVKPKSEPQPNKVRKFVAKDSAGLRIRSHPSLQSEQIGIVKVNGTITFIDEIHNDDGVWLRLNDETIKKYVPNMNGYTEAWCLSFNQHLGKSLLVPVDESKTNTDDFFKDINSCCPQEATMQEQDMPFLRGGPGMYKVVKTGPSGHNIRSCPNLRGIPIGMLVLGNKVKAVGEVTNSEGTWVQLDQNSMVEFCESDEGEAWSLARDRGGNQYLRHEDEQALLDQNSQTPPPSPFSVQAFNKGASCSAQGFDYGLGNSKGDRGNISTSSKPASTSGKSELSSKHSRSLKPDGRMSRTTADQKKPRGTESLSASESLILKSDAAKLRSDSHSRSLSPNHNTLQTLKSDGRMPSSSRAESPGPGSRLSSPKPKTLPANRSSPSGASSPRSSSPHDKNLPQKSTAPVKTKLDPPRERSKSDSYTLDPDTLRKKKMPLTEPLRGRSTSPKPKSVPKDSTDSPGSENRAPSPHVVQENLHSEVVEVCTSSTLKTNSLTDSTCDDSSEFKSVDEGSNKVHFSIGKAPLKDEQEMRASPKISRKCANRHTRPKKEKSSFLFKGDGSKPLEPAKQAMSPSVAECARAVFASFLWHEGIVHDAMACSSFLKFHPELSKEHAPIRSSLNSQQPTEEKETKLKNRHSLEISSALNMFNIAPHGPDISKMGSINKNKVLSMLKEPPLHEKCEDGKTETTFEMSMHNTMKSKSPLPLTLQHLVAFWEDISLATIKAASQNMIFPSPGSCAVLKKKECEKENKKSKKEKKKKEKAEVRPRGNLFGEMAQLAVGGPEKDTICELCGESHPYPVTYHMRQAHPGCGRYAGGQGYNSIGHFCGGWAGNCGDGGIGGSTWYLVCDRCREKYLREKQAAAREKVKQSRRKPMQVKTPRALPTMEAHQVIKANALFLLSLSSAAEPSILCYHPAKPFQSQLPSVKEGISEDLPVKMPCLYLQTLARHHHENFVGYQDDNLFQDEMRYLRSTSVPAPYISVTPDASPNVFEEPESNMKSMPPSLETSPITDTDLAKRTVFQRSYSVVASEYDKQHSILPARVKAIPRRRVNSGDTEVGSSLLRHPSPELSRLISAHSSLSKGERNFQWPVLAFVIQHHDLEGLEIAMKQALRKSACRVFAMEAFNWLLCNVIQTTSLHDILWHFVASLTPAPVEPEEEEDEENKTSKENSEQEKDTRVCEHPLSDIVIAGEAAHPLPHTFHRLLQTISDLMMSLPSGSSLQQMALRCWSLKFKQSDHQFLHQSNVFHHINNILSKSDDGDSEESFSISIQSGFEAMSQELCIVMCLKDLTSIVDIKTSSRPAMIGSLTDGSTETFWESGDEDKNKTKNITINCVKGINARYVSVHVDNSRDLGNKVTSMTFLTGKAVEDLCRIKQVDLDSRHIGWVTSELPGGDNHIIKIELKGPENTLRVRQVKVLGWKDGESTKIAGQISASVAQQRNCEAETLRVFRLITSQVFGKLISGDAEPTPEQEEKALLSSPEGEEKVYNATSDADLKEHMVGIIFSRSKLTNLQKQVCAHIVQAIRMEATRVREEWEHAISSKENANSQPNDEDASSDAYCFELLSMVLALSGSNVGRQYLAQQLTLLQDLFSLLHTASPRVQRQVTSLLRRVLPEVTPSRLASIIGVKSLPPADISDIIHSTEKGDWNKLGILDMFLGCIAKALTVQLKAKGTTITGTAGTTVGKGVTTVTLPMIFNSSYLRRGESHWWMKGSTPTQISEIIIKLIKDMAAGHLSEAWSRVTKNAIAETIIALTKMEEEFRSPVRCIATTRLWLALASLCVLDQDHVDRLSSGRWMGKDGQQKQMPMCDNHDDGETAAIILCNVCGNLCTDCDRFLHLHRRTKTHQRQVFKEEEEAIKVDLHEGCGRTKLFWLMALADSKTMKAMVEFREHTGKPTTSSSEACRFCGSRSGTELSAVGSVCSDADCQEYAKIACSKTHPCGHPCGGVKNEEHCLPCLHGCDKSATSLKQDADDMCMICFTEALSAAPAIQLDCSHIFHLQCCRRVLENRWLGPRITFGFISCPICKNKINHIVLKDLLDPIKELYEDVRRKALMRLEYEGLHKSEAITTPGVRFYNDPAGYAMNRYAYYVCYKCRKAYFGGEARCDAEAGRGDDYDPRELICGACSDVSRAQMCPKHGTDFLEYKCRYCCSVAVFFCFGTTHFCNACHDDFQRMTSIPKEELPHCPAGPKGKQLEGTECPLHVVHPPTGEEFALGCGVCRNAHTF
UniProt Q9NVV4: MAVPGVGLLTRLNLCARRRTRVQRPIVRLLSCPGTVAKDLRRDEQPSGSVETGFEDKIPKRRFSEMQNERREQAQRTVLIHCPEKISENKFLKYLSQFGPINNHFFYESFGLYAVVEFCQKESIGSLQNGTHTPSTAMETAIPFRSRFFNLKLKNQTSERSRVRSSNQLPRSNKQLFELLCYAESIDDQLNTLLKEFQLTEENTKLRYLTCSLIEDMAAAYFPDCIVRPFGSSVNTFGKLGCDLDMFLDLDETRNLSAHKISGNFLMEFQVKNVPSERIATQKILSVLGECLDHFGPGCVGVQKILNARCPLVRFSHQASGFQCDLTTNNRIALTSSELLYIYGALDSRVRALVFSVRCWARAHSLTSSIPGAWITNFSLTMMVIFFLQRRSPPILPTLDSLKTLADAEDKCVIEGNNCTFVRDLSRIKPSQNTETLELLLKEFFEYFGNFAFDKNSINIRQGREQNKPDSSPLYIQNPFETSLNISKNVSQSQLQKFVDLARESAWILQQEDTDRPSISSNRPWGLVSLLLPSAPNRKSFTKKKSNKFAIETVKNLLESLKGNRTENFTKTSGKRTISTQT
UniProt P13640: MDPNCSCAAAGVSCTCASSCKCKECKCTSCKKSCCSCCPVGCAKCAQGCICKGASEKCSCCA
UniProt P84157: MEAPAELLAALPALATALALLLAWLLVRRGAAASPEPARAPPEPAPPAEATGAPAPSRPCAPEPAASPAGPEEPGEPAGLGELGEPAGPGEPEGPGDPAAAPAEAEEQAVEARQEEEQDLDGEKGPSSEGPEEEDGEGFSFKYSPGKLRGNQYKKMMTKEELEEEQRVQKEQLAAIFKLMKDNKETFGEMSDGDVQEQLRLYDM

Tests used:
Test in all cases: log2 fold change, soluble protein after heating vs DMSO (PISA); higher = thermal stabilisation; K562 cells, 10 uM, 30 min; active = over 0.2 and 3.5 SD of the protein, either way, in both replicates (recomputed)
saracatinib = compound: CN1CCN(CCOc2cc(OC3CCOCC3)c3c(Nc4c(Cl)ccc5c4OCO5)ncnc3c2)CC1 [saracatinib]
Method in brief: (§1)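 K562 cells at 2×10^6 cells/mL were treated with 10 μM compound for 30 min. Aliquots were heated for 3 min across 48°C-58°C, pooled, and extracted in PBS with 0.5% NP-40 at 4°C; soluble protein was the supernatant after 21,000xg for 90 min. Soluble protein was quantified by TMTpro 16plex LC-MS/MS with channel sums equalised, and reported as log2 fold change in thermal stability against DMSO controls, with values from duplicates.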

sotrastaurin = compound: CN1CCN(c2nc(C3=C(c4c[nH]c5ccccc45)C(=O)NC3=O)c3ccccc3n2)CC1 [sotrastaurin]
Method in brief: as §1

alvocidib = compound: CN1CC[C@H](c2c(O)cc(O)c3c(=O)cc(-c4ccccc4Cl)oc23)[C@H](O)C1 [alvocidib]
Method in brief: as §1

Tubastatin A = compound: CN1CCc2c(c3ccccc3n2Cc2ccc(C(=O)NO)cc2)C1 [Tubastatin A]
Method in brief: as §1

[1] = compound: CNC(=O)C1=CC=CC=C1NC2=NC(=NC=C2Cl)NC3=C(C=C(C=C3)N4CCOCC4)OC
Method in brief: as §1

defactinib = compound: CNC(=O)c1ccc(Nc2ncc(C(F)(F)F)c(NCc3nccnc3N(C)S(C)(=O)=O)n2)cc1 [defactinib]
Method in brief: as §1

rucaparib = compound: CNCc1ccc(-c2[nH]c3cc(F)cc4c3c2CCNC4=O)cc1 [rucaparib]
Method in brief: as §1

[2] = compound: CNc1nc(-c2ccc3c(N)n[nH]c3c2)cc(N2C[C@@H](C(=O)NC3CCCCC3)CC[C@H]2C)n1
Method in brief: as §1

encorafenib = compound: COC(=O)N[C@@H](C)CNc1nccc(-c2cn(C(C)C)nc2-c2cc(Cl)cc(NS(C)(=O)=O)c2F)n1 [encorafenib]
Method in brief: as §1

[3] = compound: COC(=O)[C@H](CCSC)NC(=O)C1=C(C=C(C=C1)NC[C@H](CS)N)C2=CC=CC=C2
Method in brief: as §1

[4] = compound: COC1=CC=C(C=C1)CN2C=CC3=C2C=C(C=C3)C(=O)NO
Method in brief: as §1

filanesib = compound: CON(C)C(=O)N1N=C(c2cc(F)ccc2F)S[C@@]1(CCCN)c1ccccc1 [filanesib]
Method in brief: as §1

zotarolimus = compound: CO[C@H]1C[C@@H]2CC[C@@H](C)[C@@](O)(O2)C(=O)C(=O)N2CCCC[C@H]2C(=O)O[C@H]([C@H](C)C[C@@H]2CC[C@H](n3cnnn3)[C@H](OC)C2)CC(=O)[C@H](C)/C=C(\C)[C@@H](O)[C@@H](OC)C(=O)[C@H](C)C[C@H](C)/C=C/C=C/C=C/1C [zotarolimus]
Method in brief: as §1

idasanutlin = compound: COc1cc(C(=O)O)ccc1NC(=O)[C@@H]1N[C@@H](CC(C)(C)C)[C@](C#N)(c2ccc(Cl)cc2F)[C@H]1c1cccc(Cl)c1F [idasanutlin]
Method in brief: as §1

alisertib = compound: COc1cc(Nc2ncc3c(n2)-c2ccc(Cl)cc2C(c2c(F)cccc2OC)=NC3)ccc1C(=O)O [alisertib]
Method in brief: as §1

[5] = compound: COc1cc2nc(-c3cc(F)ccc3O)nc(N[C@@H]3CNC[C@H]3C(C)(C)O)c2cc1OC
Method in brief: as §1

gefitinib = compound: COc1cc2ncnc(Nc3ccc(F)c(Cl)c3)c2cc1OCCCN1CCOCC1 [gefitinib]
Method in brief: as §1

[6] = compound: COc1cccc2cc(-c3nc([C@H]4CC[C@H](C(=O)O)CC4)n4ncnc(N)c34)[nH]c12
Method in brief: as §1

lapatinib = compound: CS(=O)(=O)CCNCc1ccc(-c2ccc3ncnc(Nc4ccc(OCc5cccc(F)c5)c(Cl)c4)c3c2)o1 [lapatinib]
Method in brief: as §1

pictilisib = compound: CS(=O)(=O)N1CCN(Cc2cc3nc(-c4cccc5[nH]ncc45)nc(N4CCOCC4)c3s2)CC1 [pictilisib]
Method in brief: as §1

Measured: log2 fold change

MTFP1 (UniProt Q9UDX5)
inactive: saracatinib 0.034 | sotrastaurin 0.029 | alvocidib -0.01 | Tubastatin A -0.025 | [1] 0 | defactinib -0.015 | rucaparib 0.024 | [2] -0.028 | encorafenib 0.003 | [3] 0.012 | [4] -0.07 | filanesib -0.023 | zotarolimus -0.058 | idasanutlin -0.018 | alisertib -0.027 | [5] 0.011 | gefitinib 0.031 | [6] 0.09 | lapatinib -0.032 | pictilisib -0.019

MYH9 (UniProt P35579)
inactive: saracatinib 0.05 | sotrastaurin -0.05 | alvocidib -0.067 | Tubastatin A -0.003 | [1] 0.012 | defactinib -0.04 | rucaparib -0.121 | [2] 0.018 | encorafenib 0.037 | [3] -0.029 | [4] 0.094 | filanesib -0.123 | zotarolimus 0.048 | idasanutlin -0.043 | alisertib 0.014 | [5] 0 | gefitinib 0.006 | [6] -0.017 | lapatinib 0.072 | pictilisib -0.103

MT-ND6 (UniProt P03923)
inactive: saracatinib 0.021 | sotrastaurin -0.036 | alvocidib 0.085 | Tubastatin A 0.06 | defactinib -0.022 | rucaparib -0.067 | [2] -0.254 | encorafenib 0.021 | [3] -0.027 | [4] -0.184 | filanesib 0.186 | zotarolimus 0.055 | idasanutlin 0.234 | alisertib -0.004 | gefitinib 0.023 | [6] 0.101

MRS2 (UniProt Q9HD23)
inactive: saracatinib 0.035 | sotrastaurin 0.037 | alvocidib 0.05 | Tubastatin A -0.026 | [1] -0.044 | defactinib -0.02 | rucaparib -0.01 | [2] 0 | encorafenib -0.001 | [3] -0.015 | [4] -0.014 | filanesib -0.106 | zotarolimus -0.045 | idasanutlin 0.01 | alisertib -0.06 | [5] -0.075 | gefitinib -0.006 | [6] 0.041 | lapatinib 0.048 | pictilisib -0.002

MYL12B (UniProt O14950)
inactive: saracatinib 0.057 | sotrastaurin -0.012 | Tubastatin A 0.019 | [1] 0.007 | defactinib -0.036 | rucaparib 0.009 | [2] -0.041 | encorafenib -0.012 | [3] -0.018 | [4] -0.008 | filanesib -0.052 | zotarolimus 0.111 | idasanutlin -0.064 | alisertib -0.06 | [5] 0.022 | gefitinib -0.001 | [6] -0.018 | lapatinib 0.047 | pictilisib -0.015

MTMR3 (UniProt Q13615)
inactive: saracatinib -0.038 | sotrastaurin -0.051 | alvocidib -0.066 | Tubastatin A -0.011 | [1] 0.013 | defactinib -0.053 | rucaparib -0.091 | [2] 0.039 | encorafenib -0.05 | [3] 0.026 | [4] -0.024 | filanesib 0.019 | zotarolimus -0.024 | idasanutlin 0.036 | alisertib 0.018 | [5] 0.013 | gefitinib 0.011 | [6] 0.08 | lapatinib 0.06 | pictilisib -0.055

MTHFSD isoform 3 (UniProt Q2M296)
inactive: saracatinib -0.121 | sotrastaurin -0.166 | alvocidib 0.182 | Tubastatin A 0.128 | [1] 0.016 | defactinib -0.027 | [2] -0.015 | [3] -0.383 | [4] -0.208 | filanesib -0.087 | zotarolimus -0.093 | idasanutlin 0.091 | alisertib -0.614 | [5] -0.192 | [6] -0.139 | lapatinib 0 | pictilisib -0.132

MYL6 (UniProt G3V1V0)
inactive: saracatinib 0.112 | sotrastaurin -0.013 | alvocidib 0.025 | Tubastatin A -0.201 | [1] -0.02 | defactinib 0 | rucaparib 0.082 | [2] -0.025 | encorafenib 0.047 | [3] 0.118 | filanesib -0.184 | zotarolimus -0.133 | idasanutlin 0.044 | alisertib -0.325 | [6] 0.131

Random excerpt: 2 records from the list.
MTHFSD isoform 3 (UniProt Q2M296)
inactive: saracatinib -0.121 | sotrastaurin -0.166 | alvocidib 0.182 | Tubastatin A 0.128 | [1] 0.016 | defactinib -0.027 | [2] -0.015 | [3] -0.383 | [4] -0.208 | filanesib -0.087 | zotarolimus -0.093 | idasanutlin 0.091 | alisertib -0.614 | [5] -0.192 | [6] -0.139 | lapatinib 0 | pictilisib -0.132

MRS2 (UniProt Q9HD23)
inactive: saracatinib 0.035 | sotrastaurin 0.037 | alvocidib 0.05 | Tubastatin A -0.026 | [1] -0.044 | defactinib -0.02 | rucaparib -0.01 | [2] 0 | encorafenib -0.001 | [3] -0.015 | [4] -0.014 | filanesib -0.106 | zotarolimus -0.045 | idasanutlin 0.01 | alisertib -0.06 | [5] -0.075 | gefitinib -0.006 | [6] 0.041 | lapatinib 0.048 | pictilisib -0.002

(cont.)

MTX2 (UniProt O75431)
inactive: saracatinib -0.005 | sotrastaurin 0.045 | alvocidib -0.037 | Tubastatin A 0.001 | [1] 0.065 | defactinib -0.018 | rucaparib 0.071 | [2] 0.004 | encorafenib -0.005 | [3] 0.003 | [4] -0.016 | filanesib -0.05 | zotarolimus 0.062 | idasanutlin -0.007 | alisertib -0.009 | [5] 0.118 | gefitinib 0.038 | [6] 0.058 | lapatinib -0.002 | pictilisib 0.106

MRPS18C (UniProt Q9Y3D5)
inactive: saracatinib 0.104 | sotrastaurin 0.156 | alvocidib -0.001 | Tubastatin A 0.027 | [1] 0.134 | defactinib 0.044 | rucaparib 0.018 | [2] -0.031 | encorafenib -0.045 | [3] 0.033 | [4] 0.042 | filanesib 0.113 | zotarolimus 0.008 | idasanutlin 0.134 | alisertib -0.33 | [5] -0.179 | [6] 0.024 | lapatinib 0.087 | pictilisib -0.144

MTA1 (UniProt Q13330)
inactive: saracatinib -0.019 | sotrastaurin -0.161 | alvocidib -0.199 | Tubastatin A -0.029 | [1] -0.029 | defactinib -0.181 | rucaparib 0.059 | [2] -0.043 | encorafenib 0.06 | [3] -0.019 | [4] 0.087 | filanesib 0.042 | zotarolimus 0.083 | idasanutlin 0.038 | alisertib -0.065 | [5] -0.048 | gefitinib -0.015 | [6] -0.117 | lapatinib 0.065 | pictilisib 0.015

MTHFD2L (UniProt Q9H903)
inactive: saracatinib 0.075 | sotrastaurin -0.076 | alvocidib -0.256 | defactinib -0.048 | [2] -0.054 | [3] 0.023 | filanesib -0.004 | zotarolimus 0.12 | alisertib 0.051 | [6] -0.394

MYCBP2 (UniProt O75592)
inactive: saracatinib -0.203 | sotrastaurin 0.447 | alvocidib 0.064 | Tubastatin A -0.061 | [1] 0.054 | defactinib 0.126 | rucaparib -0.073 | [2] 0.252 | encorafenib -0.163 | [3] 0.226 | [4] -0.52 | filanesib 0.363 | zotarolimus -0.043 | idasanutlin -0.038 | alisertib 0.062 | [5] 0.323 | gefitinib 0.036 | [6] 0.461 | lapatinib -0.104 | pictilisib 0.227

MTHFR isoform 2 (UniProt P42898)
inactive: saracatinib -0.007 | sotrastaurin 0.082 | alvocidib -0.046 | Tubastatin A -0.032 | [1] -0.014 | defactinib -0.012 | rucaparib 0.034 | [2] 0.058 | encorafenib -0.027 | [3] -0.089 | [4] -0.174 | filanesib -0.106 | zotarolimus 0.008 | idasanutlin -0.111 | alisertib -0.057 | [5] 0.053 | gefitinib 0.012 | [6] 0.047 | lapatinib -0.021 | pictilisib 0.012

MTPAP (UniProt Q9NVV4)
inactive: saracatinib -0.093 | sotrastaurin 0.005 | alvocidib 0.121 | Tubastatin A 0.02 | [1] 0.06 | defactinib 0.126 | rucaparib 0.198 | [2] 0.02 | encorafenib 0.15 | [3] -0.046 | [4] -0.055 | filanesib 0.18 | zotarolimus -0.044 | idasanutlin 0.044 | alisertib 0.009 | [5] 0.1 | gefitinib -0.05 | [6] -0.156 | lapatinib 0.078 | pictilisib -0.112

MT1G (UniProt P13640)
inactive: saracatinib 0.103 | sotrastaurin -0.018 | alvocidib 0.004 | Tubastatin A -0.092 | [1] -0.051 | defactinib -0.014 | rucaparib 0.04 | [2] -0.053 | encorafenib -0.033 | [3] 0.125 | [4] 0.333 | filanesib 0.085 | zotarolimus -0.05 | idasanutlin 0.148 | alisertib -0.011 | [5] -0.059 | gefitinib -0.055 | [6] 0.103 | lapatinib 0.071 | pictilisib 0.089

MXRA7 (UniProt P84157)
inactive: saracatinib 0.127 | sotrastaurin 0.027 | Tubastatin A -0.02 | [1] 0.007 | defactinib -0.104 | rucaparib -0.093 | [2] -0.033 | encorafenib 0.008 | [3] -0.025 | [4] -0.248 | filanesib 0.135 | zotarolimus 0.023 | idasanutlin -0.066 | alisertib -0.017 | [5] -0.007 | gefitinib 0.058 | [6] 0.067 | lapatinib 0 | pictilisib -0.053
